Source: PMC9500383

Chains of the proteins cited; added tags and fusions are not shown. Lines headed by an entry give the natural chain unless they say otherwise; changes in a name come on top. Residues count along the entry.
UniProt O14936: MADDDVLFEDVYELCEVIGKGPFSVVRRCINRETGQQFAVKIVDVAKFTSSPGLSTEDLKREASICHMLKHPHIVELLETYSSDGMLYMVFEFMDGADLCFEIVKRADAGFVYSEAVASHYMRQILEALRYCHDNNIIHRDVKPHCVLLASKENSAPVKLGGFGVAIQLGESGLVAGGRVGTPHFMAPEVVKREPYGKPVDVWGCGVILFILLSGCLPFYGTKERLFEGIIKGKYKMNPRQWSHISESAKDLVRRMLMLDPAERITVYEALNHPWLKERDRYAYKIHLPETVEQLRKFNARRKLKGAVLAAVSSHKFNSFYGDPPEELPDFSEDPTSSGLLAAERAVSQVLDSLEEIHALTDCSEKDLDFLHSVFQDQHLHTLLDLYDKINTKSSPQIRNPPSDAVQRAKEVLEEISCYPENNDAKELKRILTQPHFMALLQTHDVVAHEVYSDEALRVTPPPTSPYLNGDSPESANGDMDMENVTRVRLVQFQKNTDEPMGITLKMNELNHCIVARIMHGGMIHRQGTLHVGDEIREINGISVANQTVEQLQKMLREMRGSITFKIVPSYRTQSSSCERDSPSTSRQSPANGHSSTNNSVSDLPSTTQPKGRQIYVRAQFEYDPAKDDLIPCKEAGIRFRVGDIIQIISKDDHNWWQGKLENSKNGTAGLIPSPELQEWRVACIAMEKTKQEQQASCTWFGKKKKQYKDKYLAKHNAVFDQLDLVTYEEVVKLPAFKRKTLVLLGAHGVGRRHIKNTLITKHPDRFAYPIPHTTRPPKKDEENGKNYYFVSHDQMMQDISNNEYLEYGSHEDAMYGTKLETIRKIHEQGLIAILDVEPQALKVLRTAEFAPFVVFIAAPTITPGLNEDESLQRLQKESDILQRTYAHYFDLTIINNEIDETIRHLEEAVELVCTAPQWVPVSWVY
UniProt O75334: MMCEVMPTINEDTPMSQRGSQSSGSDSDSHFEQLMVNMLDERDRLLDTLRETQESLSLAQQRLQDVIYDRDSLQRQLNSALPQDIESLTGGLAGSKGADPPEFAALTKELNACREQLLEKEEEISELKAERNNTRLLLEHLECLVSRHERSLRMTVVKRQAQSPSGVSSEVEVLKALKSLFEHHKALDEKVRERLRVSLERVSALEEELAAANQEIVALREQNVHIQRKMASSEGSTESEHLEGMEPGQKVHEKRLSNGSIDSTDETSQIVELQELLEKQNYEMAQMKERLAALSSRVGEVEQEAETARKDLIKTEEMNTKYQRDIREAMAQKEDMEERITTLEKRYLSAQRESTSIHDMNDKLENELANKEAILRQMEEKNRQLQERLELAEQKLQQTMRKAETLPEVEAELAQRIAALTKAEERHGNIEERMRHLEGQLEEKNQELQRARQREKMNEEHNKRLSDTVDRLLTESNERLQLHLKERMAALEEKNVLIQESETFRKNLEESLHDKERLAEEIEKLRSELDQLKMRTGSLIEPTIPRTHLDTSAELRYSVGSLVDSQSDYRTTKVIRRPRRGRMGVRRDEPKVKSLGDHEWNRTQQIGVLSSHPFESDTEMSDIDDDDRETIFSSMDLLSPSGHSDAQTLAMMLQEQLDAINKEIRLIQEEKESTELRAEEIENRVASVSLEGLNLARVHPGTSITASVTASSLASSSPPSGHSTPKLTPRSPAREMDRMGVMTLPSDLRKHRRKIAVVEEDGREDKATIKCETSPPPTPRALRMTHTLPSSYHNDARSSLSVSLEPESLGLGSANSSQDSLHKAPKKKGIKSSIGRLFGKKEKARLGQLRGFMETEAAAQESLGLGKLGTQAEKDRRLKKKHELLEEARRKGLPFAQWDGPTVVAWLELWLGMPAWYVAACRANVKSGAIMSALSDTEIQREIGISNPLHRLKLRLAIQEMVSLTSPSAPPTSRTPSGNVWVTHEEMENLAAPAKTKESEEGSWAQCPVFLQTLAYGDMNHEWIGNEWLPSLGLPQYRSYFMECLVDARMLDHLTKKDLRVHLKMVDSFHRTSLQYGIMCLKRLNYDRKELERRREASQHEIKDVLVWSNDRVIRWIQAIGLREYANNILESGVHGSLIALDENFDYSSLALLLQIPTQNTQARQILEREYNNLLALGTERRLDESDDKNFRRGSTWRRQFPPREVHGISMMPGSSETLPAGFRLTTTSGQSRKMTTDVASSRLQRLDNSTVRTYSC
UniProt P0DI97, residues 47-468: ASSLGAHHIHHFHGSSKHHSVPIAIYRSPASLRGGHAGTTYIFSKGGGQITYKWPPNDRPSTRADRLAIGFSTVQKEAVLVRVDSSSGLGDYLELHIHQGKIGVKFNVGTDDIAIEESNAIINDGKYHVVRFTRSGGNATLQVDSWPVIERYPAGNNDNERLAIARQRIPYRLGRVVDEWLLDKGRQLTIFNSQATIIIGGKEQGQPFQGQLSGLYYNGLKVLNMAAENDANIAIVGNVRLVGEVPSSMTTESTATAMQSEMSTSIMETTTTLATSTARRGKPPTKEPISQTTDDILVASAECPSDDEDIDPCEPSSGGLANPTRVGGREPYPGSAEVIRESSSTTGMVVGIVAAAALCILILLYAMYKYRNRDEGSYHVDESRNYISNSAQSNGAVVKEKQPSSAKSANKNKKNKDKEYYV

Experiments:
[1] = target: mRFP-tagged CASK-WT (human) (UniProt O14936); experiment: co-IP; HEK293T cells cotransfected, lysed in RIPA buffer 24 h after transfection; mRFP-tagged CASK precipitated with RFP-Trap agarose beads, 2 h at 4°C, five washes with RIPA buffer; Western blotting
[2] = target: mRFP-tagged CASK-WT (human) (UniProt O14936); experiment: as above; remark: listed apart in the source

Molecule	binding [1]	binding [2]
HA-tagged Liprin-α2 (from UniProt O75334 1-1257)	binds	
HA-tagged Neurexin-1β (from UniProt P0DI97 47-468)	binds	
Veli1 (protein, UniProt O14910 1-233) MLKPSVTSAPTADMATLTVVQPLTLDRDVARAIELLEKLQESGEVPVHKLQSLKKVLQSEFCTAIREVYQYMHETITVNGCPEFRARATAKATVAAFAASEGHSHPRVVELPKTDEGLGFNVMGGKEQNSPIYISRIIPGGVAERHGGLKRGDQLLSVNGVSVEGEHHEKAVELLKAAKDSVKLVVRYTPKVLEEMEARFEKLRTARRRQQQQLLIQQQQQQQQQQTQQNHMS		binds

Like-named read-outs stand apart in the source and are kept apart here. These are yes or no findings as the source states them, for the method shown. In cells and extracts the contact can be indirect. Binding calls can cover weak binding; strength is not graded here.
